The test has as its target p62/SQSTM1 (UniProt Q13501). In words: co-IP; HeLa-V5-tau cells transiently transfected; lysed in CHAPS buffer (30 mM Tris-Cl pH 7.5, 150 mM NaCl, 1% CHAPS); immunoprecipitation for HA overnight at 4°C, immunoblotting for GFP, HA (and myc); with control vector or β-arrestin1-myc overexpression. For orientation: A western blot detects proteins with antibodies after separation by electrophoresis.

Sequences of proteins named here, by UniProt entry; tags and fusion partners are left off.
UniProt P29066: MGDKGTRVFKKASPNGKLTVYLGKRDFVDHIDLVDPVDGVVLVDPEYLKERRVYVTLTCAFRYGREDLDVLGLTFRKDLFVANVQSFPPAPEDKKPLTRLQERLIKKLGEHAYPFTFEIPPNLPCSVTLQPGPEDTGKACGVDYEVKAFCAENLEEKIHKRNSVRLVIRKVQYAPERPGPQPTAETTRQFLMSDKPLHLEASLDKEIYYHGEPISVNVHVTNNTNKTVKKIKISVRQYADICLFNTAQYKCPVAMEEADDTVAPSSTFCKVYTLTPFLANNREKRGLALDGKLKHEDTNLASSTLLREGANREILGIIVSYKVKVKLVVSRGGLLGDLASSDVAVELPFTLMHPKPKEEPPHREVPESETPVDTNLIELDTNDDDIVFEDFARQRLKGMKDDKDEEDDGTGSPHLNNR

These are yes or no findings as the source states them, for the method shown. In cells and extracts the contact can be indirect. Some entries that bind do so weakly or less than the wild type.

For the substance “GFP-β-arrestin1 (from UniProt P29066 1-418)”, the binding result is “binds”.

These data come from PMC8675912.
